Source: patent US20230151014A1 (Repare Therapeutics Inc., priority 2020, published 2023)
Structures were worked out from names or drawings and are uncertain.

The chains behind the UniProt entries cited, without tags or fusion partners.
UniProt Q99640, whole entry: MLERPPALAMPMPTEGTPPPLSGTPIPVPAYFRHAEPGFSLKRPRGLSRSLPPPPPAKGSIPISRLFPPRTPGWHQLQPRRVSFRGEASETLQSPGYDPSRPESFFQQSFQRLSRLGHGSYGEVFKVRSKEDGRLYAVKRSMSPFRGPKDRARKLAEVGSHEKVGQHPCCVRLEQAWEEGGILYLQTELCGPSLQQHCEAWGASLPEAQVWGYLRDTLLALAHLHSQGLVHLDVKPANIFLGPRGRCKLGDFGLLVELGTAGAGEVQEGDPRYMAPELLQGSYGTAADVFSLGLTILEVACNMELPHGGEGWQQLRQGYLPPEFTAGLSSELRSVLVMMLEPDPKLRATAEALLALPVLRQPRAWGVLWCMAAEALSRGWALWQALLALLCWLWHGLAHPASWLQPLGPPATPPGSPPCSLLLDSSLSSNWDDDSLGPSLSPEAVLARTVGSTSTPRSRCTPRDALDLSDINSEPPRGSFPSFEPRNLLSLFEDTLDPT

The compounds below were run against recombinant human Myt1 (Homo sapiens, UniProt Q99640) (assay: Myt1 enzymatic assay (ADP-Glo kinase assay, IC50 and % max inhibition)). Conditions: read-out: Myt1 IC50.
Format: biochemical
`Cc1ccc(O)c(C)c1-n1cc(C(N)=O)c2cc(C3CC3)cnc21` [144] was tested, and the IC50 was less than 0.01 µM. In the case of `Cc1ccc(O)c(C)c1-n1cc(C(N)=O)c2cc(C3CC3)cnc21` [145], the IC50 is reported as greater than 2 µM.

Same assay, conditions: read-out: Myt1 IC50; recombinant human Myt1 18 nM, ATP 10 μM, ADP-Glo
With `Cc1ccc(O)c(C)c1-n1c(N)c(C(N)=O)c2nc(-c3cnccn3)cnc21` [39] the IC50 was greater than 5 µM. In the case of `Cc1ccc(O)c(C)c1-n1c(N)c(C(N)=O)c2nc(-c3cnccn3)cnc21` [40], the IC50 is reported as less than 0.01 µM. `Cc1ccc(-c2cnc3c(n2)c(C(N)=O)c(N)n3-c2c(C)ccc(O)c2C)nc1` [62] was tested, and the IC50 was greater than 5 µM. `Cc1ccc(-c2cnc3c(n2)c(C(N)=O)c(N)n3-c2c(C)ccc(O)c2C)nc1` [63] gave an IC50 of less than 0.01 µM. `Cc1ccc(O)c(C)c1-n1c(N)c(C(N)=O)c2nc(C3CCCCC3)cnc21` [82] was tested, and the IC50 was greater than 5 µM. In the case of `Cc1ccc(O)c(C)c1-n1c(N)c(C(N)=O)c2nc(C3CCCCC3)cnc21` [84], the IC50 is reported as less than 0.01 µM. In the case of `CCN(CC)c1cnc2c(n1)c(C(N)=O)c(N)n2-c1c(C)ccc(O)c1C` [89], the IC50 is reported as less than 0.01 µM. Compound `CCN(CC)c1cnc2c(n1)c(C(N)=O)c(N)n2-c1c(C)ccc(O)c1C` [90] has an IC50 of 2.8 µM. With `CC(=O)c1c(N)n(-c2c(C)ccc(O)c2C)c2ncc(-c3cnccn3)nc12` [98] the IC50 was greater than 5 µM. In the case of `CC(=O)c1c(N)n(-c2c(C)ccc(O)c2C)c2ncc(-c3cnccn3)nc12` [99], the IC50 is reported as less than 0.01 µM. `Cc1ccc(O)c(Cl)c1-n1c(N)c(C(N)=O)c2nc(C3CC3)cnc21` [105] was tested, and the IC50 was 3.06 µM. `Cc1ccc(O)c(Cl)c1-n1c(N)c(C(N)=O)c2nc(C3CC3)cnc21` [106] showed an IC50 of less than 0.01 µM. Compound `Cc1ccc(O)c(C)c1-n1c(N)c(C(N)=O)c2c(C)c(C)cnc21` [126] has an IC50 of less than 0.01 µM. For `Cc1ccc(O)c(C)c1-n1c(N)c(C(N)=O)c2c(C)c(C)cnc21` [127], the IC50 was 0.271 µM. `Cc1ccc(O)c(C)c1-n1c(N)c(C(N)=O)c2cc(C(C)C)cnc21` [139] showed an IC50 of less than 0.01 µM. Compound `Cc1ccc(O)c(C)c1-n1c(N)c(C(N)=O)c2cc(C(C)C)cnc21` [140] has an IC50 of 0.526 µM. For `Cc1ccc(O)c(Cl)c1-n1c(N)c(C(N)=O)c2nc(C)c(C)nc21` [171], the IC50 was 6.14 µM. `Cc1ccc(O)c(Cl)c1-n1c(N)c(C(N)=O)c2nc(C)c(C)nc21` [172] was tested, and the IC50 was less than 0.01 µM. `Cc1ccc(O)c(C)c1-n1c(N)c(C(N)=O)c2nc(C3CCC3)cnc21` [174] was tested, and the IC50 was less than 0.01 µM. With `Cc1ccc(O)c(C)c1-n1c(N)c(C(N)=O)c2nc(C3CCC3)cnc21` [175] the IC50 was greater than 5 µM. Work on `Cc1ccc(O)c(C)c1-n1c(N)c(C(N)=O)c2cc(Br)c(C)nc21` [188] yielded an IC50 of less than 0.01 µM. Work on `Cc1ccc2c(C(N)=O)c(N)n(-c3c(C)ccc(O)c3C)c2n1` [194] yielded an IC50 greater than 2 µM. Work on `Cc1ccc2c(C(N)=O)c(N)n(-c3c(C)ccc(O)c3C)c2n1` [195] yielded an IC50 of less than 0.01 µM. Compound `Cc1ccc(O)c(Br)c1-n1c(N)c(C(N)=O)c2cc(Cl)cnc21` [290] has an IC50 of less than 0.01 µM. With `Cc1ccc(O)c(Br)c1-n1c(N)c(C(N)=O)c2cc(Cl)cnc21` [291] the IC50 was greater than 2 µM. `Cc1ccc(O)c(C)c1-n1c(N)c(C(N)=O)c2cc(-c3ccccn3)cnc21` [296] showed an IC50 of less than 0.01 µM. `Cc1ccc(O)c(C)c1-n1c(N)c(C(N)=O)c2cc(-c3ccccn3)cnc21` [297] showed an IC50 greater than 2 µM. `Cc1ccc(O)c(C)c1-n1c(N)c(C(N)=O)c2cc(N3CCCC3=O)cnc21` [299] was tested, and the IC50 was less than 0.01 µM. In the case of `Cc1ccc(O)c(C)c1-n1c(N)c(C(N)=O)c2cc(N3CCCC3=O)cnc21` [300], the IC50 is reported as greater than 2 µM. `Cc1c(O)ccc(Br)c1-n1c(N)c(C(N)=O)c2cc(Cl)cnc21` [302] showed an IC50 of less than 0.01 µM. `Cc1c(O)ccc(Br)c1-n1c(N)c(C(N)=O)c2cc(Cl)cnc21` [303] gave an IC50 greater than 2 µM. Compound `Cc1ccc(O)c(C)c1-n1c(N)c(C(N)=O)c2cc(C3=CCOCC3)cnc21` [305] has an IC50 of less than 0.01 µM. `Cc1ccc(O)c(C)c1-n1c(N)c(C(N)=O)c2cc(C3=CCOCC3)cnc21` [306] was tested, and the IC50 was greater than 2 µM. Work on `Cc1ccc(O)c(C)c1-n1c(N)c(C(N)=O)c2cc(-c3nccs3)cnc21` [309] yielded an IC50 of less than 0.01 µM. With `Cc1ccc(O)c(C)c1-n1c(N)c(C(N)=O)c2cc(-c3nccs3)cnc21` [310] the IC50 was greater than 2 µM. For `Cc1ccc(O)c(C)c1-n1c(N)c(C(N)=O)c2c(C)c(Cl)cnc21` [314], the IC50 was less than 0.01 µM. With `Cc1ccc(O)c(C)c1-n1c(N)c(C(N)=O)c2c(C)c(Cl)cnc21` [315] the IC50 was greater than 2 µM. For `Cc1ccc(O)c(C)c1-n1c(N)c(C(N)=O)c2c(Cl)c(Cl)cnc21` [317], the IC50 was less than 0.01 µM. In the case of `Cc1ccc(O)c(C)c1-n1c(N)c(C(N)=O)c2c(Cl)c(Cl)cnc21` [318], the IC50 is reported as greater than 2 µM. Compound `Cc1ccc(O)c(C)c1-n1c(N)c(C(N)=O)c2cc(I)cnc21` [320] has an IC50 of less than 0.01 µM. Compound `Cc1ccc(O)c(C)c1-n1c(N)c(C(N)=O)c2cc(I)cnc21` [321] has an IC50 greater than 2 µM. For `Cc1ccc(O)c(C)c1-n1c(N)c(C(N)=O)c2cc(C(C)(C)O)cnc21` [322], the IC50 was less than 0.01 µM. Work on `Cc1ccc(O)c(C)c1-n1c(N)c(C(N)=O)c2cc(C(C)(C)O)cnc21` [323] yielded an IC50 greater than 2 µM. In the case of `[2H]C([2H])([2H])c1nc2c(nc1C1CC1)c(C(N)=O)c(N)n2-c1c(C)ccc(O)c1C` [Compound 111], the IC50 is reported as less than 0.01 µM. With `Cc1ccc(O)c(C)c1-n1c(N)c(C(N)=O)c2cc(Br)cnc21` [Compound 141] the IC50 was less than 0.01 µM.
